Experimental data as given in PMC3762726.
These are yes or no findings as the source states them, for the method shown. Binding seen in cells or lysates may run through a third protein. Here binding means that the protein was enriched with, or labelled near, the bait; the list need not be complete. Tags and fused reporters may be left off the sequences shown.

T1: TAP-tagged KSRP (K homology splicing regulatory protein) (UniProt Q92945)
T1 sequence: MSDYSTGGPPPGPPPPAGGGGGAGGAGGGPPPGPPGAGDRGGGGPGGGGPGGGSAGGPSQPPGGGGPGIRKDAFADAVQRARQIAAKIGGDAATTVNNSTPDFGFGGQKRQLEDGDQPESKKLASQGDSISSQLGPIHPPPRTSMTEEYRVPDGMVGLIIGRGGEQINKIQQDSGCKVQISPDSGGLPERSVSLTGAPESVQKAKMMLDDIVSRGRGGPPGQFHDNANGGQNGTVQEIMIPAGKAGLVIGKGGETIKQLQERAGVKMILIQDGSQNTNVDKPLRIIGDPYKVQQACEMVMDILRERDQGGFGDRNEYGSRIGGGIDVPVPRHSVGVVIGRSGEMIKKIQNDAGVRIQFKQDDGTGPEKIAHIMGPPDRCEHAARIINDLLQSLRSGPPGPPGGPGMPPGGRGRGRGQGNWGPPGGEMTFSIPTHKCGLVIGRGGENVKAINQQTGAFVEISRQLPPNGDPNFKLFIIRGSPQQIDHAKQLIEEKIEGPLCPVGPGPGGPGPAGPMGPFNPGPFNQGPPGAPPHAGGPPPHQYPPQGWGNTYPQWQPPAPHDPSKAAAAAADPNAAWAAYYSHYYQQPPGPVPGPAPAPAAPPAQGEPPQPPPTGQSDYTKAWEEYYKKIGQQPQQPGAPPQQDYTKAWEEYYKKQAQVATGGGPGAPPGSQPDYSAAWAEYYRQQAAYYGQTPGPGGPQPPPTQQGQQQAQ


Target: T1, TAP-tagged KSRP (K homology splicing regulatory protein)
Experiment: affinity purification with mass spectrometry; TAP purification (two steps of affinity chromatography) of TAP-KSRP from RNase A-treated extracts of stable HT1080 cells; bands 1 and 2 of a silver-stained gel analysed by mass spectrometry; control cells with the TAP tag only

Row | binding | Binder
1 | binds | DEAD box protein DDX1, endogenous (protein, UniProt Q92499 1-740) MAAFSEMGVMPEIAQAVEEMDWLLPTDIQAESIPLILGGGDVLMAAETGSGKTGAFSIPVIQIVYETLKDQQEGKKGKTTIKTGASVLNKWQMNPYDRGSAFAIGSDGLCCQSREVKEWHGCRATKGLMKGKHYYEVSCHDQGLCRVGWSTMQASLDLGTDKFGFGFGGTGKKSHNKQFDNYGEEFTMHDTIGCYLDIDKGHVKFSKNGKDLGLAFEIPPHMKNQALFPACVLKNAELKFNFGEEEFKFPPKDGFVALSKAPDGYIVKSQHSGNAQVTQTKFLPNAPKALIVEPSRELAEQTLNNIKQFKKYIDNPKLRELLIIGGVAARDQLSVLENGVDIVVGTPGRLDDLVSTGKLNLSQVRFLVLDEADGLLSQGYSDFINRMHNQIPQVTSDGKRLQVIVCSATLHSFDVKKLSEKIMHFPTWVDLKGEDSVPDTVHHVVVPVNPKTDRLWERLGKSHIRTDDVHAKDNTRPGANSPEMWSEAIKILKGEYAVRAIKEHKMDQAIIFCRTKIDCDNLEQYFIQQGGGPDKKGHQFSCVCLHGDRKPHERKQNLERFKKGDVRFLICTDVAARGIDIHGVPYVINVTLPDEKQNYVHRIGRVGRAERMGLAISLVATEKEKVWYHVCSSRGKGCYNTRLKEDGGCTIWYNEMQLLSEIEEHLNCTISQVEPDIKVPVDEFDGKVTYGQKRAAGGGSYKGHVDILAPTVQELAALEKEAQTSFLHLGYLPNQLFRTF
2 | binds | DNA replication licensing factor MCM5 (protein, UniProt P33992 1-734) MSGFDDPGIFYSDSFGGDAQADEGQARKSQLQRRFKEFLRQYRVGTDRTGFTFKYRDELKRHYNLGEYWIEVEMEDLASFDEDLADYLYKQPAEHLQLLEEAAKEVADEVTRPRPSGEEVLQDIQVMLKSDASPSSIRSLKSDMMSHLVKIPGIIIAASAVRAKATRISIQCRSCRNTLTNIAMRPGLEGYALPRKCNTDQAGRPKCPLDPYFIMPDKCKCVDFQTLKLQELPDAVPHGEMPRHMQLYCDRYLCDKVVPGNRVTIMGIYSIKKFGLTTSRGRDRVGVGIRSSYIRVLGIQVDTDGSGRSFAGAVSPQEEEEFRRLAALPNVYEVISKSIAPSIFGGTDMKKAIACLLFGGSRKRLPDGLTRRGDINLLMLGDPGTAKSQLLKFVEKCSPIGVYTSGKGSSAAGLTASVMRDPSSRNFIMEGGAMVLADGGVVCIDEFDKMREDDRVAIHEAMEQQTISIAKAGITTTLNSRCSVLAAANSVFGRWDETKGEDNIDFMPTILSRFDMIFIVKDEHNEERDVMLAKHVITLHVSALTQTQAVEGEIDLAKLKKFIAYCRVKCGPRLSAEAAEKLKNRYIIMRSGARQHERDSDRRSSIPITVRQLEAIVRIAEALSKMKLQPFATEADVEEALRLFQVSTLDAALSGTLSGVEGFTSQEDQEMLSRIEKQLKRRFAIGSQVSEHSIIKDFTKQKYPEHAIHKVLQLMLRRGEIQHRMQRKVLYRLK
3 | binds | hnRNP M (protein, UniProt P52272 1-730) MAAGVEAAAEVAATEIKMEEESGAPGVPSGNGAPGPKGEGERPAQNEKRKEKNIKRGGNRFEPYANPTKRYRAFITNIPFDVKWQSLKDLVKEKVGEVTYVELLMDAEGKSRGCAVVEFKMEESMKKAAEVLNKHSLSGRPLKVKEDPDGEHARRAMQKVMATTGGMGMGPGGPGMITIPPSILNNPNIPNEIIHALQAGRLGSTVFVANLDYKVGWKKLKEVFSMAGVVVRADILEDKDGKSRGIGTVTFEQSIEAVQAISMFNGQLLFDRPMHVKMDERALPKGDFFPPERPQQLPHGLGGIGMGLGPGGQPIDANHLNKGIGMGNIGPAGMGMEGIGFGINKMGGMEGPFGGGMENMGRFGSGMNMGRINEILSNALKRGEIIAKQGGGGGGGSVPGIERMGPGIDRLGGAGMERMGAGLGHGMDRVGSEIERMGLVMDRMGSVERMGSGIERMGPLGLDHMASSIERMGQTMERIGSGVERMGAGMGFGLERMAAPIDRVGQTIERMGSGVERMGPAIERMGLSMERMVPAGMGAGLERMGPVMDRMATGLERMGANNLERMGLERMGANSLERMGLERMGANSLERMGPAMGPALGAGIERMGLAMGGGGGASFDRAIEMERGNFGGSFAGSFGGAGGHAPGVARKACQIFVRNLPFDFTWKMLKDKFNECGHVLYADIKMENGKSKGCGVVKFESPEVAERACRMMNGMKLSGREIDVRIDRNA
